Results published in PMC4234486.
Results are given in words; binding and its absence hold for the method and conditions named. Binding seen in cells or lysates may run through a third protein. Binding calls can cover weak binding; strength is not graded here. For some assays here: Tags and fused reporters may be left off the sequences shown.

Protein sequences, listed by entry. Tags and fused reporters are not part of them. Lines headed by an entry give the natural chain unless they say otherwise; changes in a name come on top.
UniProt Q09872: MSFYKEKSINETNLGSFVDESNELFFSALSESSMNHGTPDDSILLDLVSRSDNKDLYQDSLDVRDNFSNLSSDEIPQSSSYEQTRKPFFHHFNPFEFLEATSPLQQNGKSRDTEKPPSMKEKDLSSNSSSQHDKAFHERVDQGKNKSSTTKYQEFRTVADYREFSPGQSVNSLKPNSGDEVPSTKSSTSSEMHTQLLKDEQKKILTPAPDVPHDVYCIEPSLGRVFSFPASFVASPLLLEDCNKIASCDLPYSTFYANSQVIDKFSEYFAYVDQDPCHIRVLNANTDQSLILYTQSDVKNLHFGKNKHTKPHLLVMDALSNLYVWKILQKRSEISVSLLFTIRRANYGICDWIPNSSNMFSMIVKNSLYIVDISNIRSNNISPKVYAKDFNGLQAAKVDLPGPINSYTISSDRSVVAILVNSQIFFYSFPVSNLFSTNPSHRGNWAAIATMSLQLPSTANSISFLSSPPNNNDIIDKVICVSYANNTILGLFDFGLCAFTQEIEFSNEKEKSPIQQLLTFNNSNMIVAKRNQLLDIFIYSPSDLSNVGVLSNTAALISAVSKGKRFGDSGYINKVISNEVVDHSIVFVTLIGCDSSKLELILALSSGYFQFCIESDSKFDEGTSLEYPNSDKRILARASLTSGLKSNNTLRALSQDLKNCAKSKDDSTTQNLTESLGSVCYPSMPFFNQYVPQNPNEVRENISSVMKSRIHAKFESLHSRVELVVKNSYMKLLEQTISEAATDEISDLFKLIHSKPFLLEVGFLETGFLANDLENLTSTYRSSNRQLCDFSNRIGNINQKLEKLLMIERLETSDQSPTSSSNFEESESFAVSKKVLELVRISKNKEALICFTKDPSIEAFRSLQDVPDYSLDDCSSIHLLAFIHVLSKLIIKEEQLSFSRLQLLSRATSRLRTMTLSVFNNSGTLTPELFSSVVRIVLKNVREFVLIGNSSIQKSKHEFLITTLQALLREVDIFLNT

T1: Exo2-TAP (S. pombe) (UniProt P40383)
T1 sequence: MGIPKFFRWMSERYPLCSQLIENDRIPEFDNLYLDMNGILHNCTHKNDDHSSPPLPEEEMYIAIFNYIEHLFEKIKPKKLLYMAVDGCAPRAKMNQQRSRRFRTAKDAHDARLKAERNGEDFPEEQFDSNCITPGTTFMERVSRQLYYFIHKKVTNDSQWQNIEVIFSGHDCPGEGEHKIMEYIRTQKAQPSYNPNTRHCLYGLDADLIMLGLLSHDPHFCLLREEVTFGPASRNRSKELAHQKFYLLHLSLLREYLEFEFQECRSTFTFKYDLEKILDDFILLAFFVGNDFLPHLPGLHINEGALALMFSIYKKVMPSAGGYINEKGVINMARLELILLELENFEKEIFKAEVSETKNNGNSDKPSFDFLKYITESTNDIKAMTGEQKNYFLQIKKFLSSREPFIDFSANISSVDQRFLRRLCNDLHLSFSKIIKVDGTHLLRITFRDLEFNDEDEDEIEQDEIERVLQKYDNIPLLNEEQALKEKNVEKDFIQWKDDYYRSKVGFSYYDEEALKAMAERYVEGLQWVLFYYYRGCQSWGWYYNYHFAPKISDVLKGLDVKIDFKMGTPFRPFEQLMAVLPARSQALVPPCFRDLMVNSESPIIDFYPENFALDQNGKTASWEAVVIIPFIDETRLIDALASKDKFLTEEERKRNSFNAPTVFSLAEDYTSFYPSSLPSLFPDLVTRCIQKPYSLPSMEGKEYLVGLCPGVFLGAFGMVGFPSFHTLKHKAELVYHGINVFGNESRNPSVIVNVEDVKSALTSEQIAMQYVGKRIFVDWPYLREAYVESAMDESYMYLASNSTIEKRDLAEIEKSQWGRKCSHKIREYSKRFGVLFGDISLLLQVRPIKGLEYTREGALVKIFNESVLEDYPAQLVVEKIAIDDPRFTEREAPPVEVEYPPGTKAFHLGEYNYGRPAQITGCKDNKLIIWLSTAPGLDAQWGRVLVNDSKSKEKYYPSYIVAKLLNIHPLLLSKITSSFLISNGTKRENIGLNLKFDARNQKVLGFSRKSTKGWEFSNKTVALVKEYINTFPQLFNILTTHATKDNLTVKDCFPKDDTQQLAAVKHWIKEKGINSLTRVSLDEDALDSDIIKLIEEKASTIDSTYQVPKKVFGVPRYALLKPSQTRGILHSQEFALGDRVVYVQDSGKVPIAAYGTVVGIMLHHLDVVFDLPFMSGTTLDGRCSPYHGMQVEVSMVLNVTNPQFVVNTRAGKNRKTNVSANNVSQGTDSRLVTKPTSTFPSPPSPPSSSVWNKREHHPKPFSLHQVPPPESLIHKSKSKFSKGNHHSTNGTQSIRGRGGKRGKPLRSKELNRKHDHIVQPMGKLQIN

B1: Exo2-myc (protein, UniProt P40383 1-1328)
chain: T1 sequence

Tests used:
Exo2-TAP (S. pombe) = target: T1, Exo2-TAP (S. pombe); assay: co-IP; fission yeast cell extracts; TAP-tagged protein immunoprecipitated with monoclonal antibodies against protein A; Western blot with peroxidase anti-peroxidase complexes (TAP) and anti-myc; also after treating 250 ul of extract with 200 units of RNase I for 15 minutes at room temperature (interaction kept)
Eti1-TAP (S. pombe) = assay: as above

Molecule	binding (Exo2-TAP (S. pombe))	binding (Eti1-TAP (S. pombe))
Eti1-myc (from UniProt Q09872)	binds	–
B1	–	binds
